# Laboratory results from the supplement of paper PMC3334620.
# Over roughly 33,000 sequences, “E-score (-0.5 to 0.5)” has its median near -0.0014; the highest 2% begin near 0.25. The list shows a part of the results.
# Biological target: T1, Cad1 (UniProt P24813)
# T1 sequence: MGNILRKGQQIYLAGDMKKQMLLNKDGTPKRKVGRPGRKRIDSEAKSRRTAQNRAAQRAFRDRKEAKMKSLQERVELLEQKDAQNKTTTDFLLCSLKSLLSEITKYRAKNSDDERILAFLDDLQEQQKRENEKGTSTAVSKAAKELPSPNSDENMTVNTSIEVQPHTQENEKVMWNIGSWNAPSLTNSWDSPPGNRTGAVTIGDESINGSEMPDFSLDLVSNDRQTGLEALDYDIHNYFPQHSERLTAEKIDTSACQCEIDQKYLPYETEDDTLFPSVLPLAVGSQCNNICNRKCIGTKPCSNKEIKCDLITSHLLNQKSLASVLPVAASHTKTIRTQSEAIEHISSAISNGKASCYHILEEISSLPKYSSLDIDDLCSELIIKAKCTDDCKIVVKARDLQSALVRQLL
# Assay: PBM E-score (8-mer binding enrichment) (E-score (-0.5 to 0.5)); higher = stronger / more preferred TF binding
# Settings: protein concentration: 100 nM; construct: GST-full length
# Description: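 Universal 'all 10-mer' protein binding microarrays (Agilent AMADID 015681) probed with GST-tagged S. cerevisiae TFs (full-length or DBD) made by in vitro transcription/translation (PURExpress), about 100-200 nM. Bound TF was detected with fluorescent anti-GST. Each ungapped 8-mer (which stands for itself and its reverse complement) is scored by the PBM enrichment score (E-score), a modified Wilcoxon-Mann-Whitney statistic from -0.5 to +0.5, computed with the Universal PBM Analysis Suite. Scale: above 0.35 generally sequence-specific binding.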
row,Sequence,PBM E-score
1,AGGTGTGA,-0.126
2,CGACGCAA,0.118
3,TCGCCGCA,0.0193
4,AAGAGGGA,-0.243
5,ATAGCAAC,0.0425
6,AGGCCGAT,0.139
7,AACTTCCA,-0.0493
8,AATCCATT,0.188
9,AGCGCTGG,0.191
10,CAACTAGG,0.079
11,ATACATCC,0.0953
12,CAATTTCC,0.15
13,GATGCAGC,0.0592
14,CTACCTGA,-0.0406
15,CACCAAAG,-0.00946
16,CCGTCTTC,-0.0473
17,AATTGCCT,0.149
18,ACGGAGAA,0.0805
19,AGACCCAT,-0.108
20,AAGCTAAC,0.0817
21,ATATTGAG,0.0195
22,CTCCCTGA,-0.247
23,TATGTCCA,-0.0512
24,GCAGCAAC,0.109
25,CACTTTGC,-0.0211

row,Sequence,PBM E-score
1,CGGGAGCA,0.0572
2,GGTGCAGA,-0.217
3,ATGAACCC,0.0129
4,AGCCAATA,-0.0761
5,CACTCTGG,-0.115
6,CGAGGTGA,0.221
7,CCATGGGG,-0.0233
8,CACTCCCC,-0.162
9,GGAATCTA,0.0275
10,AAATAGTC,-0.0981
11,GAGAAGGC,-0.224
12,CGTGAGTA,0.175
13,AAGCTCGC,0.224
14,AACTTGGG,-0.0849
15,GACCGCCA,-0.111
16,CGTACTTA,0.179
17,CACCACCC,-0.132
18,ATGATCTC,-0.0469
19,CAACCGCA,0.066
20,ATCTCTGC,0.0525
21,AACGACCG,-0.116
22,AGATAGCG,-0.0372
23,AGTAAATA,0.12
24,ATATTTTC,0.207
25,AAGGCCTC,-0.171

row,Sequence,PBM E-score
1,ACGCTGTC,-0.187
2,CTGCACAC,-0.0494
3,ACTCAAGA,-0.193
4,CTGGGCCC,-0.23
5,CTACGAGC,-0.131
6,CCTAGTCG,-0.118
7,GTTTGCAA,0.0869
8,AGGTTGTC,-0.0912
9,CGACGCTC,0.129
10,AATGCCCC,-0.238
11,ACACTAGT,0.115
12,CGATTCGA,0.213
13,CCGCGCAA,0.0795
14,AACAATGT,0.101
15,ATTTACTG,0.0117
16,ATGGCTTG,-0.0675
17,AACCTGTG,-0.0443
18,AATTGGGA,0.056
19,TAACGCTA,-0.0198
20,CCCGTACA,-0.313
21,ACGCTTCT,-0.202
22,GTACCAGA,-0.0155
23,CAAATATC,0.261
24,GATAGCTA,0.0144
25,CGACTGAC,-0.175

row,Sequence,PBM E-score
1,CACGCCCC,-0.201
2,ATACGCAG,-0.0837
3,ATCACTCC,-0.127
4,ATCTCGTG,-0.0129
5,ATTCCCCC,-0.219
6,TGGTTTAA,0.0972
7,CAATCTTC,0.035
8,GCCAACAC,0.1
9,GAGCTGGA,-0.0498
10,GTGCAGTA,0.00821
11,AAGTCGAG,0.0276
12,CTGGCGAA,0.0604
13,CCACAGGG,-0.243
14,AGTTGAGC,0.0736
15,AGAAGGTA,0.103
16,CGTGGTCC,-0.117
17,CCTATGAC,-0.0855
18,CGATGTCC,0.0702
19,AAAATGCT,0.181
20,ATCAGTGA,0.0672
21,GGAGTTAA,-0.0416
22,GGAAACTA,-0.0839
23,ATTTCGCG,0.154
24,AACTCTGC,-0.134
25,AAGTTGGG,-0.0322

row,Sequence,PBM E-score
1,TACCTCTA,-0.053
2,CTCCGAGA,0.0924
3,CAGGGAGA,-0.178
4,ACGACGGA,0.104
5,TCATGCGA,0.0455
6,CGAGGCAG,0.0833
7,ATTTCAAC,0.138
8,ATCTGAGC,0.0656
9,CTGAGATC,-0.13
10,AGAAGGAC,-0.0683
11,GAAAACTC,0.0662
12,ATTCGTTC,0.09
13,GAAAATAA,0.201
14,CATTGCTC,0.0163
15,ACCAGGTG,-0.199
16,GAGACCCA,-0.00488
17,AACTAAGC,0.187
18,GTTCATTA,-0.0226
19,GTTTAGAA,-0.0176
20,CAGTCTTA,-0.0842
21,GGCCCGCC,-0.23
22,ATGAGACG,-0.0991
23,TGAGCCCA,-0.0193
24,ACAGAGGA,-0.109
25,ACGGATCG,0.0381

# Quoted from the listing.
# PBM E-score with CGAGGTGA is entered as 0.221
# PBM E-score with GCAGCAAC is entered as 0.109
# PBM E-score with ATATTGAG is entered as 0.0195
# PBM E-score with ATCTCTGC is entered as 0.0525
# PBM E-score with AACTTCCA is entered as -0.0493
# PBM E-score with AATTGCCT is entered as 0.149

# Next part.

row,Sequence,PBM E-score
1,AGACCCCA,-0.12
2,ACCGGAGG,-0.114
3,GATCAGCA,0.141
4,TAAATCAA,0.171
5,AGACCCGC,0.0282
6,AGGATCGG,-0.232
7,AATAAAGC,0.104
8,GAAATCAA,-0.0157
9,CAGTTCGC,0.0307
10,CGATAGAA,0.0369
11,CTTGGCGC,0.0227
12,CATATTGG,0.106
13,AGGTTCTA,-0.18
14,ATCCACGA,0.0701
15,CAAGCAGC,-0.109
16,GAGGGGGC,-0.431
17,ATACGCCC,-0.104
18,CATTACTA,0.25
19,CACTGTAA,0.00669
20,CTGACACA,0.156
21,ATGTTCAG,-0.0415
22,ATAAGAAG,0.0392
23,ACAAGAGT,-0.128
24,GCTCCGGA,0.0259
25,CGCGTCTA,0.186

row,Sequence,PBM E-score
1,AGCAACAG,0.0501
2,ACGTATTG,0.00371
3,GCACGGAC,0.164
4,TGCTTACA,0.235
5,ACGGTCTA,-0.114
6,AACCCAGC,-0.0145
7,GCCTATAA,-0.13
8,GCGGACAC,0.159
9,CAACCCCG,-0.255
10,CGAACTCC,0.0429
11,GCCTCAGA,-0.0698
12,AATTGTCT,0.0333
13,TACCGATA,0.102
14,AGGGTTGG,0.0919
15,CAATTTTA,0.27
16,GCTCCGTA,-0.034
17,AGCTCCCG,-0.329
18,CATTCAAA,0.212
19,ATATATAC,0.317
20,GTAGGAAA,-0.0132
21,AACCAGGG,-0.176
22,TATATCCA,0.0658
23,ATGCAACA,-0.00464
24,CACAGTCG,-0.0501
25,AAAGCTGG,-0.145

row,Sequence,PBM E-score
1,GTGTCAAC,-0.0779
2,AGAATTTG,0.189
3,ACATTGTG,-0.0593
4,ACATGGCA,-0.0744
5,AGAGGGGG,-0.476
6,ACGCGAAG,0.0966
7,AAACACGG,0.0263
8,ACGTGGCC,-0.079
9,CGTTTCGA,-0.0385
10,AAACTACC,0.0961
11,ATTAATTA,0.263
12,AGGAGTGA,-0.13
13,CAACCCGA,0.149
14,TCTTCCCA,-0.315
15,ACCGTCAT,-0.0459
16,ACCACTAG,-0.182
17,CCTCGACG,-0.105
18,CGGCCCAG,-0.171
19,CGCTAGCG,-0.184
20,CAGGGGTA,-0.139
21,AACCTTGT,-0.313
22,CCCGTCCG,-0.299
23,CCAATCCA,-0.149
24,ACTCCAGC,-0.151
25,AAGATGCT,0.039

row,Sequence,PBM E-score
1,GCGACAGC,-0.043
2,AAGAATGA,-0.0235
3,GCGGCGTA,-0.0691
4,AACCCCAC,-0.178
5,GACTCCCC,-0.26
6,CAAGCACG,0.152
7,AACCCCAT,-0.107
8,GAAATGGC,-0.127
9,AAAAGCGC,0.0216
10,CAGTTACC,-0.00891
11,GATAAATC,0.133
12,ACGGGACT,-0.134
13,ACCTAAGT,0.0196
14,ATTGTCAA,0.084
15,AACTAACC,0.182
16,CGAGAGCC,-0.304
17,AGCCTAGA,-0.16
18,CAGCGGTA,0.107
19,CATAGAAG,-0.0635
